Experimental data as given in publication PMC3738513.
These are yes or no findings as the source states them, for the method shown. In cells and extracts the contact can be indirect. Some entries that bind do so weakly or less than the wild type. Where a sequence is shown, tags or fusion partners need not be part of it.

By UniProt entry, the sequences of proteins in these tests, tags left out.
UniProt P03372: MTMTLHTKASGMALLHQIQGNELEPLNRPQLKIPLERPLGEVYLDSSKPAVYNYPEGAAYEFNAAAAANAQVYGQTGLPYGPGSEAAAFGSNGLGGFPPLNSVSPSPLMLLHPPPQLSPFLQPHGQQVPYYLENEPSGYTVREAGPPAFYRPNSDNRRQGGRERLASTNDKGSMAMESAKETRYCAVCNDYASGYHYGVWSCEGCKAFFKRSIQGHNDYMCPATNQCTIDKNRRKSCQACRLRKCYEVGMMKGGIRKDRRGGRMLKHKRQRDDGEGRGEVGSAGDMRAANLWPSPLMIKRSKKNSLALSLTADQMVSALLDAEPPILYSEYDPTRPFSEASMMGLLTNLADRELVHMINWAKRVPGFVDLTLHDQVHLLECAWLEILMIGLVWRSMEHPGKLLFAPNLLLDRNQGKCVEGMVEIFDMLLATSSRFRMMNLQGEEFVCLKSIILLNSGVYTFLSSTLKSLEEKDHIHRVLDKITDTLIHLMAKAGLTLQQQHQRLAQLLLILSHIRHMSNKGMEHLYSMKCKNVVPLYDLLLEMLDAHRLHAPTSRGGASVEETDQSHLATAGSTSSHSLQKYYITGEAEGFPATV

Target: ERα (estrogen receptor α) (UniProt P03372)
Assay: co-IP; ERα immunoprecipitated from lysate of MCF-7/C4–12 cells transiently transfected with ERα and EBF1, treated with 10 nM E2 or vehicle; blot for EBF1; precipitating antibody not stated

binding: binds
B1: V5-tagged Early B-cell Factor 1 (EBF1) (protein, UniProt Q9UH73 1-591)
chain: MFGIQESIQRSGSSMKEEPLGSGMNAVRTWMQGAGVLDANTAAQSGVGLARAHFEKQPPSNLRKSNFFHFVLALYDRQGQPVEIERTAFVGFVEKEKEANSEKTNNGIHYRLQLLYSNGIRTEQDFYVRLIDSMTKQAIVYEGQDKNPEMCRVLLTHEIMCSRCCDKKSCGNRNETPSDPVIIDRFFLKFFLKCNQNCLKNAGNPRDMRRFQVVVSTTVNVDGHVLAVSDNMFVHNNSKHGRRARRLDPSEGTPSYLEHATPCIKAISPSEGWTTGGATVIIIGDNFFDGLQVIFGTMLVWSELITPHAIRVQTPPRHIPGVVEVTLSYKSKQFCKGTPGRFIYTALNEPTIDYGFQRLQKVIPRHPGDPERLPKEVILKRAADLVEALYGMPHNNQEIILKRAADIAEALYSVPRNHNQLPALANTSVHAGMMGVNSFSGQLAVNVSEASQATNQGFTRNSSSVSPHGYVPSTTPQQTNYNSVTTSMNGYGSAAMSNLGGSPTFLNGSAANSPYAIVPSSPTMASSTSLPSNCSSSSGIFSFSPANMVSAVKQKSAFAPVVRPQTSPPPTCTSTNGNSLQAISGMIVPPM
